As usually defined, the AC50 is the concentration giving half of the maximal activity seen. Lower therefore signals activity at low concentration.

The structures appear in SMILES notation. Several values for one entry are separate records, joined by “and”; a condition that tells them apart may be missing. Equal entries are not always repeated. The list shows a part of the results. Further columns of the screen follow, without active or inactive calls. Most of these compounds were active or inconclusive in the main read-out, so they are no random draw. The note in brackets gives the kind of curve behind each potency; many fits are weak.

A short description of this test: qHTS Assay for Lipid Storage Modulators in Drosophila S3 Cells.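 On cell number change: cells counted by Cell Tracker Red CMTPX staining in the red channel.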 Particulars: BODIPY lipid droplet fluorescence, 18-24 h; for cell number change: measured here: cell count max response, cells fed with added oleic acid. The procedure, abridged:
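Laser-scanning cytometry quantifies lipid droplet accumulation (500–530 nm total intensity; droplet/cell object ratio) in oleic acid-fed (400 uM added) Drosophila S3 cells treated with a concentration series. 20 uM Triacsin C defined 100% inhibition.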

The mark [1] stands for this setting: measured here: cell number channel AC50, cells fed with added oleic acid.
Where [2] appears, read: measured here: lipid fluorescence (Fed channel) AC50, cells fed with added oleic acid.

As for `O=C(O)c1ccc(-n2nc(C(F)(F)F)c3c2CCCC3)cc1`, the cell number change is -57%. Moreover, under setting [1], the AC50 was 29.1 µM [falling, single point] and 920 nM [falling, partial curve, poor fit]. The half-maximal activity concentration (AC50) under setting [2] is 29.1 µM [falling, single point].
As for `CCOC(=O)C1CCCN(C(=O)c2ccc(CNc3c(N4CCC(C)CC4)c(=O)c3=O)cc2)C1` (stereo not given), the cell number change came out at 2.7%. Further, under setting [2], the AC50 was 23.1 µM [falling, partial curve, poor fit].
Regarding `COc1cccc(-c2nc3ccc(O)cc3c(=O)o2)c1`, the cell number change is -17.1%.
Take `O=C(Nc1ccc(-c2nc3ccccc3[nH]2)cc1)c1ccc(N2C(=O)CCC2=O)cc1`: the cell number change is -46%. Further, the AC50 under setting [1] is 32.6 µM [falling, single point].
As to `Cc1cc(C)c2c(n1)SCC(=O)N2CC(=O)Nc1ccc(C)c(C)c1`, the cell number change is -12.7%. In addition, the AC50 under setting [2] was 0.461 µM [rising, full curve, poor fit].
Regarding `CCN1C(=O)N(C)C2(c3ccccc3)N(C)C(=O)N(C)C12c1ccccc1` (stereo not given), the cell number change is -2.05%. For the same compound, the AC50 under setting [2] is 16.4 µM [falling, partial curve].
Turning to `CCOC(=O)N1CCN(c2nc(-c3cccs3)nc3ccccc23)CC1`, the cell number change is 10.5%.
On to `CCCCCCCOc1ccc(C2CC(=O)N(C)C2=O)cc1` (stereo not given), for which the cell number change is -31.8%. Further, under setting [1], the AC50 is 16.4 µM [falling, single point].
Turning to `CC(=O)Nc1ccc(NC(=O)c2cccc(-c3cc4ccccc4oc3=O)c2)cc1`, the cell number change was -13.7%. Moreover, the concentration at half-maximal activity (AC50) under setting [2] is 0.58 µM [falling, partial curve].
Consider `CCOC(=O)c1ccc(NC(=O)CSc2nnc(CNC(=O)c3c(F)cccc3Cl)o2)cc1`, for which the AC50 was 0.366 µM [rising, full curve, poor fit] under setting [1] and 0.411 µM [rising, full curve, poor fit] under setting [2].
As for `Fc1ccc(-c2nnc3ccccn23)cc1`, the AC50 was 0.13 µM [rising, full curve, poor fit] under setting [1] and 0.58 µM [rising, single point] under setting [2].
Take `O=c1cc2ncc(-n3cc([N+](=O)[O-])cn3)cn2[nH]1`: the cell number change amounted to 53.6%. In addition, the half-maximal activity concentration (AC50) under setting [1] is 29.1 µM [rising, single point].
With `COc1cc(C(=O)N[C@@H](C)C(=O)N2CCC3(CC2)NCCc2[nH]cnc23)cc(OC)c1OC`, the cell number change stood at 20.1%.
For `COc1ccc(C(=O)Oc2ccc(=O)n(-c3ccccc3)n2)cc1`, the cell number change turned out to be 8.05%. The AC50 under setting [2] is 18.4 µM [rising, single point].
For `O=C(CNC(=O)c1ccccc1)OCCCOC(=O)CNC(=O)c1ccccc1`, the cell number change was -4.32%. Besides, the AC50 under setting [2] is 20.6 µM [rising, single point].
As to `COc1ccc(S(=O)(=O)NCC(=O)N(CC2CCCO2)C(C(=O)NC2CCCC2)C(C)C)cc1` (stereo not given), the cell number change is -2.82%.
Still for that read-out and setting: next, `Cc1nc(NCCN2CCOCC2)c2nnn(Cc3c(F)cccc3Cl)c2n1`: 4.3%.
For the compound `CSCCC(NC(=O)c1ccco1)C(=O)OCC(=O)Nc1sccc1C#N` (stereo not given), the cell number change was found to be 32.8%. Moreover, the AC50 under setting [1] is 18.4 µM [rising, single point].
As for `COC(=O)c1c(-c2ccc(SC)cc2)sc2ccccc12`, the cell number change amounted to 14.6%. In addition, under setting [1], the AC50 was 0.259 µM [falling, partial curve]. The AC50 under setting [2] was 0.326 µM [falling, partial curve].
With `COC(=O)c1ccc(NS(=O)(=O)c2cc(-c3cc(C)no3)ccc2OC)cc1`, the cell number change is -0.989%. For the same compound, the AC50 under setting [2] is 32.6 µM [falling, single point].
`CCOc1ccc(NC(=O)NC2CCS(=O)(=O)C2)cc1` (stereo not given): the cell number change was 3.95%.
In the case of `C=CCOc1c(Br)cc(CNn2nnnc2N)cc1OCC`, the cell number change was found to be 42.6%. For the same compound, under setting [1], the AC50 was 0.517 µM [rising, full curve]. The AC50 under setting [2] is 0.517 µM [rising, full curve].
`CCCCNC(=O)NNC(=O)c1ccc(F)cc1`: the cell number change turned out to be 42.1%. Besides, under setting [1], the AC50 is 29.1 µM [rising, single point].
`O=S(=O)(Nc1ccc(-n2cnnn2)cc1)c1cccs1`: the cell number change was -3.68%. Besides, the AC50 under setting [1] is 6.51 µM [rising, single point]. Besides, the AC50 under setting [2] is 6.51 µM [rising, single point].
Regarding `NC(=O)CN1CCN(c2ccccc2F)CC1`, the cell number change was -15.8%. Moreover, the AC50 under setting [2] was 20.6 µM [falling, single point].
Regarding `COc1cccc(-c2csc(NC(=O)Nc3ccccc3)n2)c1`, the cell number change is -27.7%.
`N#Cc1ccc(CSc2ccc(S(=O)(=O)N3CCCCCC3)cn2)cc1`: the AC50 under setting [1] is 0.00517 µM [falling, full curve, poor fit].
For `O=C(NCCCl)NNC(=O)c1cc2ccccc2cc1O`, the cell number change is -41.5%. The AC50 under setting [1] was 14.6 µM [falling, single point].
For `COc1ccc2[nH]c(=O)c(CN(CC3CCCO3)C(=O)Nc3ccc(F)cc3)cc2c1` (stereo not given), the AC50 under setting [1] was 2.59 µM [rising, partial curve] and the AC50 under setting [2] was 18.4 µM [rising, single point].
For `CCN1CCc2c(OCC(=O)Nc3ccc(C)cc3)cccc2C1=O`, the cell number change came to 7.33%.
With `CCC(Cc1ccccc1)NC(=O)CN(C)S(=O)(=O)c1ccc2c(c1)c(=O)n(C)c(=O)n2C` (stereo not given), the cell number change was -16.6%. Under setting [2], the AC50 was 0.116 µM [falling, full curve, poor fit].
Regarding `CCN(C1=NS(=O)(=O)c2ccccc21)N(CC)S(=O)(=O)c1ccc(C)cc1`, the cell number change is -0.851%. The AC50 under setting [1] was 6.51 µM [falling, single point]. Further, the concentration at half-maximal activity (AC50) under setting [2] was 6.51 µM [falling, single point].
On to `CCOC(=O)[C@H]1[C@H]2COc3cc(OC)ccc3[C@@H]2N2C(=O)N(c3cccc(Cl)c3)C(=O)[C@@]12C`, for which the cell number change was 22.8%.
With `CNC(=O)COC(=O)[C@@H](Nc1ccc(S(=O)(=O)N2CCOCC2)cc1[N+](=O)[O-])C(C)C`, the cell number change was 8.49%. Moreover, the AC50 under setting [2] is 9.2 µM [rising, partial curve].
With `Cc1occc1-c1nnc(SCC(=O)NCc2ccc3c(c2)OCO3)n1CC(C)C`, the cell number change amounted to 5.38%.
Take `CC1CCCCN1S(=O)(=O)c1ccc(C(=O)N(CCCN(C)C)c2nc3cc4c(cc3s2)OCO4)cc1` (stereo not given): the cell number change was 21.1%. For the same compound, under setting [2], the AC50 is 3.66 µM [rising, full curve, poor fit].
As to `O=C(Nc1cccc(NC(=O)c2cncc(Br)c2)c1)c1cncc(Br)c1`, the cell number change was 26.1%. Also, under setting [2], the AC50 is 14.6 µM [falling, partial curve].
As to `Cc1ccc(C(=O)NC2CCN(CC(=O)NCc3cccs3)CC2)cc1`, the cell number change is -93.3%. Further, the AC50 under setting [1] is 29.1 µM [falling, single point]. In addition, under setting [2], the AC50 was 0.13 µM [falling, full curve, poor fit].
As for `CC(NC(=S)NCCCN1CCOCC1)C1CC2CCC1C2` (stereo not given), the cell number change is -16.8%. Moreover, under setting [2], the half-maximal activity concentration (AC50) is 32.6 µM [falling, single point].
Take `c1ccc(CSc2n[nH]c(-c3ccco3)n2)cc1`: the cell number change amounted to 6.48%. The AC50 under setting [2] was 0.0058 µM [falling, full curve, poor fit].
As for `O=C(Nc1cc(S(=O)(=O)N2CCOCC2)ccc1O)c1ccc2c(c1)S(=O)(=O)c1ccccc1C2=O`, the cell number change was -12.5%.
With `COc1ccc(/C(N)=N/OC(=O)CCC2CCCC2)cc1`, the cell number change is -16.6%. In addition, under setting [2], the AC50 is 29.1 µM [falling, single point].
On to `COc1cc(SC)ccc1C(=O)N1CCN(c2ccccc2OC)CC1`, for which the cell number change was found to be 7.94%. Moreover, the AC50 under setting [2] was 0.291 µM [falling, partial curve, poor fit].
As for `CCOC(=O)c1ccc(S(=O)(=O)Nc2ccccc2-c2nnn(CC)n2)cc1`, the cell number change is -42.4%. Moreover, under setting [1], the AC50 was 32.6 µM [falling, single point]. Moreover, the AC50 under setting [2] was 0.164 µM [rising, full curve, poor fit].
Turning to `Cc1ccc2c(c1)nnn2C1CCN(CC(=O)N(c2ccccc2)c2ccccc2)CC1`, the cell number change was -10.5%.
Turning to `Cn1ccsc1=NC(=O)c1cc(S(=O)(=O)N2CCOCC2)ccc1F`, the AC50 runs as follows: under setting [1], 0.116 µM [rising, partial curve, poor fit]; under setting [2], 1.84 µM [rising, partial curve].
For the compound `CC(=O)OC(C(=O)n1nc(C)cc1C)c1ccccc1` (stereo not given), the cell number change is -4.32%. Further, the AC50 under setting [1] was 0.116 µM [falling, full curve, poor fit]. Moreover, under setting [2], the concentration at half-maximal activity (AC50) is 0.13 µM [falling, full curve, poor fit].
Regarding `CCn1nnc(-c2ccccc2NS(=O)(=O)c2ccc(S(=O)(=O)N(C)C3CCCCC3)cc2)n1`, the cell number change is -6.25%.
Still for that read-out and setting: the value for `CN(CC(=O)Nc1cccc(F)c1)C(=O)C1CCN(S(=O)(=O)c2ccc3c(c2)OCCO3)CC1` was -14.7%.
Consider `CCOC(=O)C1=C(COC(=O)CCc2ccccc2)NC(=O)NC1C` (stereo not given), for which the cell number change stood at 0.903%. Under setting [2], the AC50 was 4.11 µM [rising, single point].
For the compound `CCOC(=O)c1c(-c2cccc([N+](=O)[O-])c2)csc1NC(=O)CCCOc1ccccc1OC`, the cell number change is -18.7%. Besides, the half-maximal activity concentration (AC50) under setting [2] is 0.0231 µM [falling, full curve, poor fit].
As to `COC(=O)CCC/C=C1\SC[C@@H](NC(=O)c2ccccc2)C1NC(C)=O` (stereo not given in full), the cell number change was 14.6%. In addition, the AC50 under setting [2] was 14.6 µM [rising, single point].
As to `Oc1c(Cl)cc(Cl)cc1C=Nc1ccc(N2CCOCC2)cc1`, the cell number change is -30.7%.
Still for that read-out and setting: the value for `Cc1cc(C)cc(NC(=S)N2CCN(C(=O)c3ccco3)CC2)c1` was -24.8%.
Consider `O=C(Cn1cnc(S(=O)(=O)N2CCCC2)c1)Nc1cccc(F)c1`, for which the cell number change is 10%. Also, under setting [2], the AC50 is 29.1 µM [falling, single point].
Regarding `Cc1cc(C)c(C#N)c(SCC2COc3ccccc3O2)n1` (stereo not given), the cell number change was -16.2%. In addition, under setting [2], the AC50 is 2.06 µM [rising, partial curve].
Turning to `c1ccc(CCNc2nnnn2-c2ccccc2)cc1`, the cell number change was -21.8%.
On to `COc1ccc(NC(=O)CN(C)C(=O)c2ccc(-c3ccccc3Cl)o2)cc1`, for which the AC50 under setting [2] was 0.366 µM [rising, full curve, poor fit].
For `Cc1cc2nc(SCC(=O)Nc3ccccc3C(=O)O)[nH]c2cc1C`, the cell number change stood at 0.83%.
Turning to `CSc1ncccc1C(=O)OCC(=O)NCCC1=CCCCC1`, the AC50 under setting [1] is 6.51 µM [falling, single point].
For `COc1cccc(C(C(=O)NCC2CCCO2)N(C(=O)Cn2nnc3ccccc32)c2ccc(NC(C)=O)cc2)c1OC` (stereo not given), the cell number change came out at 6.31%.
`Cc1c(C(=O)Nc2ccc3oc(-c4cccnc4)nc3c2)oc2ccccc12`: the cell number change was -27.7%. The concentration at half-maximal activity (AC50) under setting [2] was 29.1 µM [falling, single point].

The values above are taken from PubChem BioAssay AID2685 (National Center for Advancing Translational Sciences (NCATS), 2010).
